Experimental data published in PubChem BioAssay AID540276 (National Center for Advancing Translational Sciences (NCATS), 2011).
Where “and” joins values, the source holds several entries; their conditions need not be identical. Equal entries are not always repeated. About 5,400 (1.8%) of roughly 300,000 compounds were called active. The shares of active, inactive and inconclusive entries below differ from those in the screen. Calls follow the shape of the full dose curve; tested in HEK293 cells. Potencies beside an inconclusive call are fits to weak or partial responses and may not hold up.
% is scaled to controls: 0 for no effect and ±100 for the full control effect; potency is read from the fitted curve at half-maximal effect.

Test: qHTS for inhibitors of binding or entry into cells for Marburg Virus
Conditions: Marburg virus pseudotyped entry inhibition, cell reporter; activity change, negative = inhibition: at 37.8 µM (top of the series) unless noted
For `NC(=O)c1c(NC(=O)COC(=O)c2ccc(O)c(Cl)c2)sc2c1CCCC2`, the Potency was inconclusive: 3.55 µM [activator, partial curve, poor fit].
With `Cc1ccc(S(=O)(=O)Oc2ccccc2-c2ccccc2)cc1` the Potency was inconclusive: 6.31 µM [inhibitor, partial curve, poor fit].
For `O=C1c2ccccc2C(=O)N1CSc1nnc(Nc2ccccc2)s1`, the Potency was inconclusive: 14.1 µM [inhibitor, single point].
With `O=C(c1cnn2c1NC(c1ccc(Br)cc1)CC2C(F)(F)F)N1CCN2CCCC2C1` (stereo not drawn) the Potency was inconclusive: 32.6 µM [inhibitor, single point].
For `CCOC(=O)CNc1ncc(C(F)(F)F)cc1Cl`, the Potency was inconclusive: 6.31 µM [activator, single point].
In the case of `CN(CC(=O)Nc1cccc(Cl)c1)C1=NS(=O)(=O)c2ccccc21`, the “activity change, negative = inhibition” value is reported as inactive: -1.09%.
In the case of `O=S(=O)(Nc1ccc(O)c(Sc2nc3ccccc3s2)c1)c1ccc(Cl)cc1`, the Potency is reported as inconclusive: 10 µM [inhibitor, partial curve].
In the case of `O=c1c2ccccc2c(-c2ccc(O)cc2)nn1-c1cccc(C(F)(F)F)c1`, the Potency is reported as inconclusive: 17.8 µM [inhibitor, single point].
For `O=C(Nc1ccc2oc(-c3cc(Br)ccc3Cl)nc2c1)c1cc2ccccc2o1`, the Potency was inconclusive: 6.31 µM [inhibitor, single point].
For `Fc1ccc(C2CC(c3ccco3)=NN2c2ccccc2)cc1` (stereo not drawn), the Potency was inconclusive: 0.13 µM [inhibitor, full curve, poor fit].
With `Cc1cc(C)c2c(N)c(C(=O)c3ccccc3)oc2n1` the Potency was inconclusive: 29.1 µM [inhibitor, single point].
For `CN(C)c1cccc(C(=O)NC2CCCCCC2)c1`, the Potency was inconclusive: 1.78 µM [activator, full curve].
For `O=[N+]([O-])c1ccc(OS(=O)(=O)Cc2ccccc2)cc1`, the activity change, negative = inhibition was inconclusive: 2.76% [activator] [at 46.1 µM].
With `Cc1nc(CCl)cc(=O)[nH]1` the “activity change, negative = inhibition” value was inactive: -10.3% [at 46.1 µM].
With `C#CCSc1nc2[nH]ncc2c(=O)[nH]1` the Potency was inconclusive: 1.26 µM [inhibitor, single point].
In the case of `COc1ccc(NC(=O)COc2ccc3c(c2)OCO3)cc1`, the “activity change, negative = inhibition” value is reported as inactive: 9.88% [at 46.1 µM].
In the case of `O=C(NCC1CCCO1)c1ccc(Cl)c(F)c1F` (stereo not drawn), the “activity change, negative = inhibition” value is reported as inactive: 3.1%.
For `Cc1cccc(C)c1NC(=O)COc1ccc2c(C)c(Cc3ccccc3)c(=O)oc2c1C`, the Potency was inconclusive: 1.84 µM [inhibitor, partial curve, poor fit].
With `COc1ccc(-c2cnn3c(N)c(S(=O)(=O)C(C)(C)C)cnc23)cc1` the “activity change, negative = inhibition” value was inactive: 0.325%.
With `CCc1ccccc1NC(=O)CSc1nc2n[nH]c(C)c2c(=N)n1-c1ccc(OC)cc1` the Potency was inconclusive: 17.8 µM [inhibitor, single point].
In the case of `Cc1c(C(=O)Cc2ccccc2)n(C)c2ccccc12`, the “activity change, negative = inhibition” value is reported as inactive: -16.2%.
For `O=C(c1cnn2c(C(F)(F)F)cc(-c3ccc4c(c3)OCO4)nc12)N1CCCCC1`, the Potency was inconclusive: 4.11 µM [inhibitor, full curve, poor fit].
With `CC(=O)Nc1ccc(S(=O)(=O)N[C@@H](C)C(=O)Nc2ccc(N3CCOCC3)cc2)cc1` the Potency was inconclusive: 5.62 µM [activator, single point].
For `Cc1nc2c(cnn2-c2ccccc2Cl)c(=O)n1-c1ccc(N2CCC(C)CC2)cc1`, the Potency was inconclusive: 14.6 µM [inhibitor, single point].
In the case of `O=C(Nc1cccc([N+](=O)[O-])c1)c1cc(S(=O)(=O)N2CCOCC2)cs1`, the “activity change, negative = inhibition” value is reported as inactive: 2.8%.
In the case of `O=C(CCC1CCCCC1)NC1CCCCC1`, the “activity change, negative = inhibition” value is reported as inactive: -17.1%.
With `O=C(/C=C/NNC(=O)c1ccccc1)c1ccc([N+](=O)[O-])cc1` the Potency was inconclusive: 11.2 µM [inhibitor, partial curve, poor fit].
In the case of `COC(=O)N/N=C/c1cc(Br)ccc1O`, the Potency is reported as inconclusive: 5.62 µM [inhibitor, single point].
With `O=c1cc(CN2CCN(c3ccccc3)CC2)c2cc(O)c(-c3ccccc3)cc2o1` the Potency was inconclusive: 0.708 µM [activator, full curve, poor fit].
For `CC(C)C(=O)OCC(=O)Nc1ccc(N=Nc2ccccc2)cc1`, the Potency was inconclusive: 11.2 µM [inhibitor, single point].
With `COC(=O)Cc1nc(NC(=O)c2cccs2)sc1C` the “activity change, negative = inhibition” value was inactive: -2.62%.
For `Cc1ccc(C(=O)Nc2ccccc2C(N)=O)o1`, the “activity change, negative = inhibition” value was inactive: 5.79%.
For `Cc1ccc(N/C=C/C(=O)c2cccs2)cc1C`, the Potency was inconclusive: 5.62 µM [inhibitor, full curve, poor fit].
In the case of `O=S1(=O)CC2N=C(N(Cc3c(F)cccc3Cl)c3ccccc3F)SC2C1` (stereo not drawn), the Potency is reported as inconclusive: 12.6 µM [inhibitor, single point].
With `CCOC(=O)C1=C(COC(=O)CNC(=O)c2ccccc2F)NC(=O)NC1C` (stereo not drawn) the “activity change, negative = inhibition” value was inactive: 26.7%.
For `CCCCN(C(=O)c1ccc(-c2ccc([N+](=O)[O-])cc2)o1)c1c(N)n(CCCC)c(=O)[nH]c1=O`, the Potency was inconclusive: 3.55 µM [activator, partial curve, poor fit].
For `CN1CCN(C(=S)c2cn(CCOc3ccccc3F)c3ccccc23)CC1`, the Potency was inconclusive: 35.5 µM [inhibitor, single point].
For `Cc1ccc(CNC(=O)CN2C(=O)NC3(CCCC3)C2=O)cc1`, the Potency was inconclusive: 11.2 µM [inhibitor, partial curve, poor fit].
In the case of `CCOc1ccc2nc(N(CCCN(C)C)C(=O)c3ccc(S(=O)(=O)N4CCc5ccccc5C4)cc3)sc2c1`, the Potency is reported as inconclusive: 35.5 µM [inhibitor, single point].
With `CC(C)Oc1ccc2nnnn2n1` the “activity change, negative = inhibition” value was inactive: 0.905% [at 46.1 µM].
With `COc1ccccc1-n1cnnc1SCC(=O)Nc1cccc(S(N)(=O)=O)c1` the “activity change, negative = inhibition” value was inactive: 11.3%.
In the case of `O=c1[nH]c(=O)n(Cc2ccco2)c(O)c1/C=N/N1CCCCC1`, the Potency is reported as inconclusive: 3.98 µM [inhibitor, full curve, poor fit].
For `CCOC(=O)c1ccccc1NC(=O)c1ccccc1SC`, the Potency was inconclusive: 11.6 µM [inhibitor, partial curve, poor fit].
In the case of `Cc1ccc(OCC(=O)NC2CCCc3ccccc32)c(C)c1` (stereo not drawn), the Potency is reported as inconclusive: 5.01 µM [inhibitor, single point].
With `CCCNC(=O)OC[C@H]1O[C@H](CCON=CC[C@@H]2C=C[C@H](OC(C)=O)[C@@H](COC(C)=O)O2)C=C[C@H]1Oc1ccc(OC)cc1` the “activity change, negative = inhibition” value was inactive: 6.06% [at 14.2 µM].
In the case of `COc1ccc(NC(=O)c2csc3c2CCCCC3)c(OC)c1`, the “activity change, negative = inhibition” value is reported as inactive: -18.3% [at 46.1 µM].
With `NC(=S)N/N=C1\CC(n2nnn(-c3cccc(Cl)c3)c2=S)C2COC1O2` (stereo not drawn) the Potency was inconclusive: 0.794 µM [activator, full curve, poor fit].
For `Cc1cc(NC(=O)c2cc(-c3cccc(Cl)c3)on2)n(-c2ccccc2)n1`, the “activity change, negative = inhibition” value was inactive: -11% [at 46.1 µM].
In the case of `Cc1ccccc1OCCn1c(=N)n(C(C)C)c2ccccc21`, the Potency is reported as inconclusive: 11.2 µM [inhibitor, partial curve, poor fit].
For `NNc1nccc(Nc2ccccc2C(=O)O)n1`, the “activity change, negative = inhibition” value was inactive: 17.1%.
With `Cc1cc(C)c(S(=O)(=O)NCCc2cc3ccc(C)c(C)c3[nH]c2=O)c(C)c1` the Potency was inconclusive: 35.5 µM [inhibitor, single point].
With `O=C(CCn1c(=O)oc2ccccc21)NCCN1CCc2ccccc2C1` the “activity change, negative = inhibition” value was inactive: 3.27%.
For `CCc1ccc(/C=N/NC(=O)Cc2ccc(OC)c(OC)c2)s1`, the Potency was inconclusive: 35.5 µM [inhibitor, single point].
For `CCc1nnc(NC(=O)CSc2nnc(-c3ccc(NS(=O)(=O)c4ccccc4)cc3)o2)s1`, the Potency was inconclusive: 0.631 µM [inhibitor, full curve, poor fit].
In the case of `Cc1ccc(N2CCN(C(=O)C3CCN(S(=O)(=O)c4ccc5c(c4)oc(=O)n5C)CC3)CC2C)cc1` (stereo not drawn), the “activity change, negative = inhibition” value is reported as inactive: 11.5% [at 46.1 µM].
For `Cc1ccc2nc3c(c(Nc4ccccc4)c2c1)CCC3`, the Potency was inconclusive: 0.355 µM [inhibitor, full curve, poor fit].
In the case of `Cc1ccc(-c2nnc(-n3nnc4ccccc43)c3ccccc23)cc1`, the Potency is reported as inconclusive: 29.1 µM [inhibitor, single point].
In the case of `c1ccc(COc2ccc(OCCOCCn3cncn3)cc2)cc1`, the Potency is reported as inconclusive: 35.5 µM [inhibitor, single point].
For `COC(=O)C1=NN[C@H](C(=O)OC(C)(C)C)[C@H]1c1ccccc1`, the Potency was inconclusive: 35.5 µM [activator, single point].
With `O=C(/C=C(\c1ccccc1)n1cncn1)c1ccccc1` the Potency was inconclusive: 20 µM [activator, partial curve, poor fit].
With `COc1ccc(NC(=O)COC(=O)Cc2ccc(Br)cc2)cc1` the Potency was inconclusive: 12.6 µM [inhibitor, single point].
In the case of `CN(C)C(CNC(=O)c1ccc(S(=O)(=O)Nc2ccccc2F)cc1)c1ccccc1` (stereo not drawn), the “activity change, negative = inhibition” value is reported as inactive: 0.956%.
With `O=C1CC(c2nc3ccccc3[nH]2)CN1c1ccccc1` (stereo not drawn) the “activity change, negative = inhibition” value was inactive: 20.9%.
In the case of `S=C(NCc1ccco1)Nc1ccc(Oc2ccc(Cl)cc2)cc1`, the “activity change, negative = inhibition” value is reported as inactive: -19.5% [at 46.1 µM].
For `COc1ccc(C(=O)/C=C/C(=O)N(CC(=O)NC2CCCCC2)Cc2ccc(F)cc2)c(O)c1`, the Potency was inconclusive: 35.5 µM [inhibitor, partial curve, poor fit].
With `O=C(CC1SC(=Nc2cccc3ccccc23)N(Cc2ccccn2)C1=O)Nc1ccccc1Br` (stereo not drawn) the Potency was inconclusive: 14.6 µM [inhibitor, partial curve, poor fit] and inconclusive: 12.6 µM [inhibitor, single point].
For `O=C(Nc1cc(Cl)ccc1-n1cncn1)c1ccc(Br)o1`, the Potency was inconclusive: 0.251 µM [inhibitor, full curve, poor fit].
In the case of `Fc1ccccc1-c1nc(NCCCN2CCOCC2)c2ccccc2n1`, the Potency is reported as inconclusive: 9.2 µM [inhibitor, partial curve].
